In patent publication US7399786B2, “Derivatives of amino acids for treatment of obesity and related disorders” (Bexel Pharmaceuticals, Inc., priority 2005, dated 2008):
At least one compound was matched to its structure with a doubt left.

Test system: 3T3-L1 cells
Assay: PPARγ agonist induced adipocyte differentiation, Oil red O staining
Assay type: cell-based, mouse
Conditions: 1 μM alone, 11 days
Experimental: Adipogenesis is defined as the production of fat laden adipocytes from fibroblast cells. All known PPARγ agonists induce adipogenesis after a long term of treatment. […] Cells were cultured for 11 days and every 48 h fresh drug was given while changing the media.

**Q.** How did the “adipocyte differentiation (adipogenesis), rosiglitazone alone” value turn out when `CN(CCOc1ccc(CC2SC(=O)NC2=O)cc1)c1ccccn1` (stereo not shown) [rosiglitazone, Rosiglitazone, reference compound] was run?
**A.** The value was “strong adipocyte differentiation”.
